This is an account of results in doi:10.1101/2024.01.24.576984.

Chains of the proteins cited; added tags and fusions are not shown. Lines headed by an entry give the natural chain unless they say otherwise; changes in a name come on top. Residues count along the entry.
UniProt Q9NVM9: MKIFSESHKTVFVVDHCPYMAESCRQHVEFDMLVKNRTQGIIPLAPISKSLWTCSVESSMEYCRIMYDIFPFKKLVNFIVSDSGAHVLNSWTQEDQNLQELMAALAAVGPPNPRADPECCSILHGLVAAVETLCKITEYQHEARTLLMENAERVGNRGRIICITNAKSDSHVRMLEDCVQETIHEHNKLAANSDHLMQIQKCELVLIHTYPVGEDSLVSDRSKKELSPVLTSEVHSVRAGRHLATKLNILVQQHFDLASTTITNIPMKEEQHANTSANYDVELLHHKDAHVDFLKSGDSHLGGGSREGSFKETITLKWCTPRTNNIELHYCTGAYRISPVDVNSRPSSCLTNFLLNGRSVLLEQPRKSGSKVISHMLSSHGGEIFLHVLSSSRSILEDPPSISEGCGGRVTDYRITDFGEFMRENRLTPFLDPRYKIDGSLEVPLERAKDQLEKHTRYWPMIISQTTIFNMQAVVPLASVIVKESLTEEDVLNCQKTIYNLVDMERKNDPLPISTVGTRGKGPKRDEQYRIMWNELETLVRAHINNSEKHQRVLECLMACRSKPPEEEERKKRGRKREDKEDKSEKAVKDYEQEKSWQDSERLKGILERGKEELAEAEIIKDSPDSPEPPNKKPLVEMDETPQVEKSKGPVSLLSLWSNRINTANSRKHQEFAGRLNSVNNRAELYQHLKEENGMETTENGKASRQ
2SC-INTS13ΔC: residues 1-648 of Q9NVM9
UniProt Q9NVR2: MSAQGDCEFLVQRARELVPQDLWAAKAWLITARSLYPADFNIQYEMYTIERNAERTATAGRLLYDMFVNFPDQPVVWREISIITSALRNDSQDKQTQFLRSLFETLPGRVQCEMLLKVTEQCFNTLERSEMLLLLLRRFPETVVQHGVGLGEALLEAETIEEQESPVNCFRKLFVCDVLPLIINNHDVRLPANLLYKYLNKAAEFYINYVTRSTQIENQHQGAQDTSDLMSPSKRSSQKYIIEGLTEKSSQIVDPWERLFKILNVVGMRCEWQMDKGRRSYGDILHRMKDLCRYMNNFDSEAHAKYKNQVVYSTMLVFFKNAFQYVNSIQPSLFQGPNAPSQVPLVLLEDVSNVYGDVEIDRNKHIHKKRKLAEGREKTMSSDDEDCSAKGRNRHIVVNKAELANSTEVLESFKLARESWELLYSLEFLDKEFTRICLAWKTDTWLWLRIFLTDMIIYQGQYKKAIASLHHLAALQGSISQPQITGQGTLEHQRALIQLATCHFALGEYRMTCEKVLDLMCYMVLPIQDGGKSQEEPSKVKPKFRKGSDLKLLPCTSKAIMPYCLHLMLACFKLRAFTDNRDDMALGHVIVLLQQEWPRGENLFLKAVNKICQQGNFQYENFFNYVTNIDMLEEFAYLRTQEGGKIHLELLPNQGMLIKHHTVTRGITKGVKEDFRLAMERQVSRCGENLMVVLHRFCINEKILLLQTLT
UniProt Q96SY0: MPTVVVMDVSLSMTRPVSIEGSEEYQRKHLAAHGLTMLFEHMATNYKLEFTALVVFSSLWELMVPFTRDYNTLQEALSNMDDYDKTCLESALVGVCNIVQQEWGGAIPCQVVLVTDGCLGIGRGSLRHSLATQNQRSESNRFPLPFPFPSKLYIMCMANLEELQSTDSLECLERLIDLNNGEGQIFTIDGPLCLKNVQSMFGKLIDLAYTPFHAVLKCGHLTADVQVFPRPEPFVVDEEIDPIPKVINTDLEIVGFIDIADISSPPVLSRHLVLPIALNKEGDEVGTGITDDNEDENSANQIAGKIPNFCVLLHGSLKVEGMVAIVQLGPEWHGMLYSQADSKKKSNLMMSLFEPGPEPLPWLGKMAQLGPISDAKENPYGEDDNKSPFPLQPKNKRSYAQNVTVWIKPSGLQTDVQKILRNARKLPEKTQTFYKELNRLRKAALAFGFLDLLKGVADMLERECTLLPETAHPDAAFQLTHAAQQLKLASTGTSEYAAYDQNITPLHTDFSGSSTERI
UniProt Q96HW7: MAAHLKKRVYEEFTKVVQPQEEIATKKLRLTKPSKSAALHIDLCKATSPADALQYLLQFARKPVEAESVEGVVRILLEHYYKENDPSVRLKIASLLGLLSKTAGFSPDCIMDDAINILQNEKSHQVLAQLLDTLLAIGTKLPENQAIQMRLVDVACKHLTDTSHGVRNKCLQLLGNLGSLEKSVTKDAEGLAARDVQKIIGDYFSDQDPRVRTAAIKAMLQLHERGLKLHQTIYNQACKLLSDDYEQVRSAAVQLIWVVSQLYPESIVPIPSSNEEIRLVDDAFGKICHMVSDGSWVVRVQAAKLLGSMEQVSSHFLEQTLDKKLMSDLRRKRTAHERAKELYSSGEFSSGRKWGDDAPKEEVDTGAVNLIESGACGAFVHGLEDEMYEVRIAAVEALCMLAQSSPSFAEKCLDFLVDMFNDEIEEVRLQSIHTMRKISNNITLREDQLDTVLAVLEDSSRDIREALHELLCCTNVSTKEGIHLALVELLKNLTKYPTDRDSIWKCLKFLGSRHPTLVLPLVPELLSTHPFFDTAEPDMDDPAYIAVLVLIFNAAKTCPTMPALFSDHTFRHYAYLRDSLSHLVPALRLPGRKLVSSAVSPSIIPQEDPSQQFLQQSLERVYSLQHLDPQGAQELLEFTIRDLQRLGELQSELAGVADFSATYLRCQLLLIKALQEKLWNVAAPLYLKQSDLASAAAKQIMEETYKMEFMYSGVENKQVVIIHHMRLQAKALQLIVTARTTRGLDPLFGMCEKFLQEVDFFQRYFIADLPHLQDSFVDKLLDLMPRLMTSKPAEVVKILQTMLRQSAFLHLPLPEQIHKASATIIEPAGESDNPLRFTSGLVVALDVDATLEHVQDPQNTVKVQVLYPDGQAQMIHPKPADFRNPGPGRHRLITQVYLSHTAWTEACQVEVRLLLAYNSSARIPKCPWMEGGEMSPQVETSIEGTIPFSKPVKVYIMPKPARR
UniProt Q6P9B9: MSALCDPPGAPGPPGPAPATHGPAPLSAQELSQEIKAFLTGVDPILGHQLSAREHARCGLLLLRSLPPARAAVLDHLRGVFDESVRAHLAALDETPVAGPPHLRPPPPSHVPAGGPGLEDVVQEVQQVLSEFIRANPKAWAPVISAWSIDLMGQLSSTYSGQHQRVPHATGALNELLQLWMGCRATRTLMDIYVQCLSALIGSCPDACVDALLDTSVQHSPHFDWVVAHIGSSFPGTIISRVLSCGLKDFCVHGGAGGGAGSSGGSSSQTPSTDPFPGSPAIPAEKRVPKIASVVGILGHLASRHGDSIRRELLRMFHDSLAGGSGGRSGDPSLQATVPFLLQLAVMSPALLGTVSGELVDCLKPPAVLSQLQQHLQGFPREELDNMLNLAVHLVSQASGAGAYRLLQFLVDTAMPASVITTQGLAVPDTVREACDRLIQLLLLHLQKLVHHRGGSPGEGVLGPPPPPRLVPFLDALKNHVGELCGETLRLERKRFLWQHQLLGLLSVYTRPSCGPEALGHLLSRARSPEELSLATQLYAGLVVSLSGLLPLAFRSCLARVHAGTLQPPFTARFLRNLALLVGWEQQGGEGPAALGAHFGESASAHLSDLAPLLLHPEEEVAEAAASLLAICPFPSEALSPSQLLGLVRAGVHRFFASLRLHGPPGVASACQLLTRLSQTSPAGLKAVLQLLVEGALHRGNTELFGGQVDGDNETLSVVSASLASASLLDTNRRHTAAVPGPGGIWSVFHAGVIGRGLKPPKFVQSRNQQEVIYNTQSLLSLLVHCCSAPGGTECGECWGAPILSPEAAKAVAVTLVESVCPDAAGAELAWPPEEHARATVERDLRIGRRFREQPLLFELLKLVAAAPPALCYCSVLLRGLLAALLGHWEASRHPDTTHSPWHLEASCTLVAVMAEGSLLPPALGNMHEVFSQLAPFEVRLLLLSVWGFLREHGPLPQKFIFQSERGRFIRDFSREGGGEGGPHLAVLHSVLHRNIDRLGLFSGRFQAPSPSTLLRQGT
UniProt Q9NVH2: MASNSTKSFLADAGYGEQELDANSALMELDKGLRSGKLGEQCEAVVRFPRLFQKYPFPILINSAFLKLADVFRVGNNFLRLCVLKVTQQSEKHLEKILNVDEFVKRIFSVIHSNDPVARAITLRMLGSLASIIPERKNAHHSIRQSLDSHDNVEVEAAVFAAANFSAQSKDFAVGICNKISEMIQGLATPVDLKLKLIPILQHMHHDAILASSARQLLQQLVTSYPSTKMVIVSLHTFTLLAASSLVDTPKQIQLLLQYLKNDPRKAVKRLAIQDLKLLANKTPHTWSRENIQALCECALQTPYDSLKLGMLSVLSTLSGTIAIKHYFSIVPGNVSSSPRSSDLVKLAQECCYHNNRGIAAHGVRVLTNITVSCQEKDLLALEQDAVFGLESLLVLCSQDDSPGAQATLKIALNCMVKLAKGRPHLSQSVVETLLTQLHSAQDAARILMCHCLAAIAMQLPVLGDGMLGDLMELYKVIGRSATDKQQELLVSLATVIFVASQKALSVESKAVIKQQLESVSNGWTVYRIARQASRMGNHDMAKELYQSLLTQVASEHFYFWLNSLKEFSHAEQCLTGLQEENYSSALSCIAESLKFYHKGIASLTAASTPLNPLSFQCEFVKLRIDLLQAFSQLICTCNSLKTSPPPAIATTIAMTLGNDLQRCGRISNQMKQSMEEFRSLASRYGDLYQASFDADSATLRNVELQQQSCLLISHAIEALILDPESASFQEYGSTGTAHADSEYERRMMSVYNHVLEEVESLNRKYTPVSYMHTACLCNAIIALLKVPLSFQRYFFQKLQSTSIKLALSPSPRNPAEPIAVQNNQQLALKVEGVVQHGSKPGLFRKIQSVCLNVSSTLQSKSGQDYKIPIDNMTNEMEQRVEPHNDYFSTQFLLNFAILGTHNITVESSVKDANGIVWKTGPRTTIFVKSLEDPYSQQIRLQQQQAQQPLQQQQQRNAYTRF
UniProt Q75QN2: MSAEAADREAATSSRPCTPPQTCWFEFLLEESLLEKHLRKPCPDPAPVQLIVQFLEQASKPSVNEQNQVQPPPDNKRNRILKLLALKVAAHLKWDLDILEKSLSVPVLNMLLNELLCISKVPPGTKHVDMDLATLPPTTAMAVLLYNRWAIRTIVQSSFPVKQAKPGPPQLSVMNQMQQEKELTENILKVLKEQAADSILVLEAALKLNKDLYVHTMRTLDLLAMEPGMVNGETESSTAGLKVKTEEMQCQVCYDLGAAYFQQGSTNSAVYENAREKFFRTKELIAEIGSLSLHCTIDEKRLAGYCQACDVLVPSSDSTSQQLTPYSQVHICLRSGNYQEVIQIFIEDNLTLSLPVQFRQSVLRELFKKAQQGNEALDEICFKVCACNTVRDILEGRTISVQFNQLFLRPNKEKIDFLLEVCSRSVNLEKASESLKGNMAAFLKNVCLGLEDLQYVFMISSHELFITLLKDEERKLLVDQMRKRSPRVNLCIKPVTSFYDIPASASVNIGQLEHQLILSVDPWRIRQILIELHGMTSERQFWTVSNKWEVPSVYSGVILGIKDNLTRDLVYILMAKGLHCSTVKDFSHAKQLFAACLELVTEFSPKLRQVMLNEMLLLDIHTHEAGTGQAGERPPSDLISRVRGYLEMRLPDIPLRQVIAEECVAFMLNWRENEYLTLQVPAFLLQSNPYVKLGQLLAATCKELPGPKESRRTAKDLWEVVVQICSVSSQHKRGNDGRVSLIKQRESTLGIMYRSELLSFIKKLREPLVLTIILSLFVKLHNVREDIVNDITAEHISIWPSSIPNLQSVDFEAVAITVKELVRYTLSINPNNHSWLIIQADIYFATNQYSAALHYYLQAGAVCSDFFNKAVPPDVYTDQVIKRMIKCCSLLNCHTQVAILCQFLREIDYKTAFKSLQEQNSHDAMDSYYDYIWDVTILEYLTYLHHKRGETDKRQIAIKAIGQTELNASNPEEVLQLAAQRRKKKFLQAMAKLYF
UniProt Q9NV88: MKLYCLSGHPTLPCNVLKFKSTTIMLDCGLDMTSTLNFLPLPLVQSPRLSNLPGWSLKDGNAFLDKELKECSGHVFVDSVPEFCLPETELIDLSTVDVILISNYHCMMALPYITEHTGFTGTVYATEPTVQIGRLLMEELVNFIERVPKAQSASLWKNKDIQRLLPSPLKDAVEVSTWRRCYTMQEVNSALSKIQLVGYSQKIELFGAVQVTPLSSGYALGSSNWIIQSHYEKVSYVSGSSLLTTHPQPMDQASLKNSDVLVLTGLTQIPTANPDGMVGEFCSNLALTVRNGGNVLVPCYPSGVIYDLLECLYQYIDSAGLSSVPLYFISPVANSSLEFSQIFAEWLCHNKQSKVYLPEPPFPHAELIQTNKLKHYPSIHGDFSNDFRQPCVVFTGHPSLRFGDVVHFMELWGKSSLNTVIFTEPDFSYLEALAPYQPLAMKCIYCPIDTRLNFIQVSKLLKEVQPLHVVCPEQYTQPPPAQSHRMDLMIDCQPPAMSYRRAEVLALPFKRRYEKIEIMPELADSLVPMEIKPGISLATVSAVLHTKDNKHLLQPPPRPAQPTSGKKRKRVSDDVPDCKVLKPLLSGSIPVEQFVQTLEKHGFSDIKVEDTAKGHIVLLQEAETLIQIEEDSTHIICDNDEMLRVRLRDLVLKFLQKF

Results are given in words; binding and its absence hold for the method and conditions named. Binding seen in cells or lysates may run through a third protein. A yes stands for co-enrichment or nearness to the bait. Other partners may have been found.

The target in the first assay is 2SC-INTS13ΔC (human) (UniProt Q9NVM9). The assay can be described thus: affinity purification with mass spectrometry.
Take INO80E (from UniProt Q8NBZ0 1-244): the binding entry is given as “binds”.

Take INTS10 (from UniProt Q9NVR2 1-710): the binding entry is given as “binds”. Take INTS14 (from UniProt Q96SY0 1-518): the binding entry is “binds”. On the same count and under the same terms, the value for INTS15 (from UniProt Q96N11 1-449) was “binds”; that for TLE1 (from UniProt Q04724 1-770) was “binds”. Regarding TLE3 (from UniProt Q04726 1-772), the binding entry is listed as “binds”.

Turning to ZNF608 (from UniProt Q9ULD9 1-1512), the binding result was “binds”.

For the next assay, the target named is INTS10-C2S (human) (UniProt Q9NVR2). The assay can be described thus: affinity purification with mass spectrometry.
As for INTS2 (from UniProt Q9H0H0 1-1196), the binding entry was “binds”.

Regarding INTS3 (from UniProt Q68E01 1-1043), the binding result is recorded as “binds”. For INTS4 (from UniProt Q96HW7 1-963), the binding result is given as “binds”. Take INTS5 (from UniProt Q6P9B9 1-1019): the binding entry was “binds”. The same measure, in the same setting: in the case of INTS6 (from UniProt Q9UL03 1-887) it was “binds”; in that of INTS7 (from UniProt Q9NVH2 1-962), “binds”. As to INTS8 (from UniProt Q75QN2 1-995), the binding result is recorded as “binds”. Turning to INTS9 (from UniProt Q9NV88 1-658), the binding entry is “binds”. Regarding INTS11 (from UniProt Q5TA45 1-600), the binding entry is “binds”. As to INTS13 (from UniProt Q9NVM9 1-706), the binding entry was “binds”.

On to INTS15 (from UniProt Q96N11 1-449), for which the binding entry is given as “binds”. Consider PP2Ac (from UniProt P67775) (enzyme), for which the binding entry was “binds”.

Regarding ZNF608 (from UniProt Q9ULD9 1-1512), the binding entry was “binds”.
